Reference: PubChem BioAssay AID977622 (Broad Institute, 2014)
Screen size: about 1,900 compounds; fewer than 10 were called active. The inconclusive results got no clear call from the source; some entries with a clear call stand among them for comparison.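 How the source made its calls: active means Green signal of the normal strain falls at least twice as much as red signal of the resistant mutant, with overall culture growth loss under a set limit; inconclusive means no clear call, values can overlap the other calls; inactive means the rest.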

Assay: wild-type E. coli growth inhibition versus h38 humanized strain – h38 mutant RFP, wild-type GFP, cherry-pick, dose response (AID 977622)
Conditions: E. coli WT ribosome GFP fluorescence, mixed culture, 24 h; at 50 µM (top of the series)

Row | Compound | activity change, negative = inhibition
1 | Nc1[nH]c(C(=O)c2ccccc2)c(-c2ccc(Cl)cc2)c1C(=O)NCCc1c[nH]c2ccccc12 | inactive: -7.61
2 | CNC(=O)C[C@H]1CC[C@@H]2[C@@H](COc3ccc(NC(=O)Nc4ccc(F)c(F)c4)cc3C(=O)N2C)O1 | inconclusive: -4.63
3 | Cc1ccccc1-n1nnnc1SCCCC(=O)c1ccc(F)cc1 | inconclusive: -18.7
4 | O=C(c1ccc2c3c(cccc13)CC2)N1CCN(c2ncccn2)CC1 | inactive: 4.74
5 | CO[C@@H]1CN(C)C(=O)c2ccc(NC(=O)c3nc4ccccc4s3)cc2OC[C@@H](C)N(Cc2ccncc2)C[C@@H]1C | inconclusive: -50.6
6 | COc1cccc(SCC(=O)N2CCN(c3ccccc3)CC2)c1 | inconclusive: 3.69
7 | Cc1cc(C)nc(SCc2cn3c(C)cccc3n2)n1 | inconclusive: -38.9
8 | CC(C)=C(c1ccc(Cl)cc1)c1c(N)ncnc1N | inactive: -0.652
9 | Cc1ccc(F)c(NC(=O)CCOc2ccccc2C)c1 | inconclusive: 5.73
10 | c1ccc(Cc2nc3ccccc3s2)cc1 | inconclusive: -8.37
11 | COc1ccc(OCCC(=O)OCC(=O)NCCC2=CCCCC2)cc1 | inconclusive: 2.73
12 | CC(C)(C)c1ccc(C(CC(=O)O)NC(=O)Cc2ccc(Cl)cc2)cc1 (stereo unspecified) | inconclusive: 4.7
13 | COc1ccc(CN2CCC3CC2c2cc(Cl)ccc23)cc1 (stereo unspecified) | inactive: -22.3
14 | O=C(Nc1cc(F)ccc1F)N1CCCCN2[C@@H](CO)[C@H](c3ccc(-c4cccnc4)cc3)[C@@H]2C1 | inconclusive: -29.8
15 | CC(=O)c1cccc(NC(=O)COC(=O)CCC(=O)c2ccc(F)cc2)c1 | inactive: -3.53
16 | CCN(CC)CCNC(=O)c1cc2cc3ccc(OC)cc3nc2o1 | inactive: -1.49
17 | CCCn1c(C(C)Nc2nc(-c3ccc(C)cc3)cs2)nc2ccccc21 (stereo unspecified) | inconclusive: 20.5
18 | Nc1[nH]c(C(=O)c2ccccc2)c(-c2ccc3c(c2)OCO3)c1C(=O)NCCc1c[nH]c2ccccc12 | inactive: -8.68
19 | CC(=O)Nc1ccc(NS(=O)(=O)c2ccc(Cl)s2)cc1 | inconclusive: -19.5
20 | O=C(Nc1cc(Cl)ccc1-n1cncn1)c1ccc([N+](=O)[O-])o1 | inconclusive: -36.7
21 | O=C(CCC1CCCN(C(=O)c2ccsc2)C1)N1CCN(c2ccccn2)CC1 (stereo unspecified) | inconclusive: -6.11

Row | Compound | activity change, negative = inhibition
22 | Cc1ccc(NC(=O)CN(C)S(=O)(=O)c2cccc3cccnc23)cc1F | inactive: -5.68
23 | CCCCc1n(CC(=O)c2ccc(Cl)cc2)c2ccccc2[n+]1C | inactive: -4.81
24 | O=C(Nc1ccc(Cl)c(Cl)c1)N[C@@H]1CC[C@H](CCn2cc(C3CCCCC3)nn2)O[C@H]1CO | inconclusive: -27.4
25 | Cc1cccc(-c2ccc([C@H]3[C@H]4CN(S(=O)(=O)c5ccccc5C)CCCCN4[C@H]3CO)cc2)c1 | inconclusive: 1.6
26 | COc1ccc(-c2cn(-c3ccc(Cl)cc3)c3[n+]2CCCCC3)cc1 | inconclusive: -25.2
27 | CCCCNC(=O)c1c(N)[nH]c(C(=O)c2ccccc2)c1-c1ccccn1 | inconclusive: -6.25
28 | CCC(C(=O)Nc1ccsc1C(=O)OC)c1ccccc1 (stereo unspecified) | inactive: -1.26
29 | CC1CCN(C(=O)COC(=O)c2ccccc2NC(=O)c2ccco2)CC1 | inconclusive: 4.08
30 | CCOc1ccc(S(=O)(=O)Nc2ccc(S(=O)(=O)N3CCCC3)cc2)cc1 | inconclusive: -9.04
31 | COc1cccc(C(=O)Nc2nnc(S(=O)(=O)N(C)Cc3ccccc3)s2)c1 | inactive: -9.21
32 | CCCc1nc2ccc(Br)cn2c1Cc1cccc(Cl)c1 | inactive: 1.09
33 | CCN(Cc1ccccc1)C(=O)COC(=O)c1cc(Cl)nc(Cl)c1 | inconclusive: 10.8
34 | Cc1noc(C)c1NC(=O)Nc1ccc2c(c1)C(=O)N([C@H](C)CO)C[C@H](C)[C@@H](CN(C)C(=O)Nc1ccc3c(c1)OCO3)OCCCC[C@H](C)O2 | inconclusive: 18.1
35 | CCc1ccc(NC(=O)COC(=O)CCCC2=NS(=O)(=O)c3ccccc3N2)cc1 | inconclusive: -12.5
36 | Cc1cccc(SCC(=O)Nc2ccccc2[N+](=O)[O-])c1 | inconclusive: -4.59
37 | O=C(OCC(=O)N1CCOCC1)c1cccc(S(=O)(=O)N2CCCc3ccccc32)c1 | inconclusive: -0.856
38 | Cc1cccc(-c2ccc([C@@H]3[C@@H](CO)N4CCCCN(S(=O)(=O)c5ccccc5C)C[C@H]34)cc2)c1 | inconclusive: -8.28
39 | CCN(CC)S(=O)(=O)c1cccc(NC(=O)COc2ccc(F)cc2Br)c1 | inconclusive: -46.5
40 | CCc1nc2ccccc2n1CCc1ccccc1 | inconclusive: -14.6
41 | O=c1[nH]c2cc([N+](=O)[O-])ccc2c2ccccc12 | inactive: 0.471
42 | CN(C)S(=O)(=O)c1cccc(C(=O)OCC(=O)c2ccc3c(c2)NC(=O)CO3)c1 | inactive: -1.41

Row | Compound | activity change, negative = inhibition
43 | COC(=O)CNC(=O)COC(=O)c1ccc(Cl)nc1 | inconclusive: 4.33
44 | COc1ccccc1NC(=O)COC(=O)Cc1c[nH]c2ccccc12 | inactive: 1.64
45 | CCCCNc1ccc2c(c1)OC[C@@H](Cc1ccccc1)NS2(=O)=O | inconclusive: -21.7
46 | CCOC(=O)CCSc1n[nH]c(=S)s1 | inconclusive: 1.91
47 | COc1ccc(C2=Nc3ccccc3NC(=O)C2N(C(=O)c2ccnc3ccccc23)c2ccccc2)cc1 (stereo unspecified) | inconclusive: -22.8
48 | C[C@@H]1CCCCO[C@H](CN(C)C(=O)CCCN(C)C)[C@H](C)CN([C@H](C)CO)C(=O)c2cc(NC(=O)Nc3cccc4ccccc34)ccc2O1 | inconclusive: -1.5
49 | COc1ccc(OC)c(-c2nnc3n2N=C(c2ccc(OC)c(OC4CCOC4)c2)CS3)c1 (stereo unspecified) | inconclusive: -23.1
50 | CSc1nc2nc3c(cc2c(=O)n1-c1ccccc1C)CCCC3 | inconclusive: -11.4
51 | O=C(NCc1nc2ccccc2[nH]1)c1ccc(S(=O)(=O)N2CCCC2)cc1 | inactive: -5.9
52 | Cc1noc(C)c1NC(=O)Nc1ccc2c(c1)C(=O)N([C@H](C)CO)C[C@H](C)[C@H](CN(C)C(=O)Nc1ccc3c(c1)OCO3)OCCCC[C@@H](C)O2 | inactive: 3.6
53 | CCOC(=O)c1ccc(CC(=O)c2oc3cc(O)ccc3c2C)o1 | inconclusive: -3.24
54 | CN(C(=O)c1cccc(NC(=O)Cc2cccc(NC(=O)C3CCN(C(=O)CCc4ccccc4)CC3)c2)c1)C1CC1 | inconclusive: 3.33
55 | CCN(c1ccccc1)S(=O)(=O)c1cccc(C(=O)NCC(c2cccs2)N(C)C)c1 (stereo unspecified) | inconclusive: 17.3
56 | N#Cc1nc(-c2ccco2)oc1NCc1ccccc1Cl | inconclusive: -13.7
57 | COC(=O)[C@@H](Cc1c[nH]c2ccccc12)NCc1cccc(B(O)O)c1 | inconclusive: -8.69
58 | CC(=O)c1cccc(NC(=O)COC(=O)C2CCCN2C(=O)c2cccs2)c1 (stereo unspecified) | inconclusive: -31
59 | Cc1ccccc1CSCC(=O)Nc1ccccc1F | inactive: 4.82
60 | CS(=O)(=O)c1ccc(C(=O)Nc2nc(-c3ccco3)c(-c3ccco3)s2)cc1 | inconclusive: -12.4
61 | N#Cc1ccc(-c2ccc(C3[C@H]4CNC[C@@H]3N4S(=O)(=O)c3ccc(-c4ccccc4)cc3)cc2)cc1 (stereo partly specified) | inactive: -1.89
62 | O=C(O)c1ccc(-c2noc(-c3cccc(Cl)c3)n2)cc1 | inconclusive: -29.7
63 | COc1cc2[nH]c(=S)nc(NCCc3ccc(C)cc3)c2cc1OC | inconclusive: -13.6

Retrieved by compound from above, five records:
Row | Compound | activity change, negative = inhibition
56 | N#Cc1nc(-c2ccco2)oc1NCc1ccccc1Cl | inconclusive: -13.7
43 | COC(=O)CNC(=O)COC(=O)c1ccc(Cl)nc1 | inconclusive: 4.33
49 | COc1ccc(OC)c(-c2nnc3n2N=C(c2ccc(OC)c(OC4CCOC4)c2)CS3)c1 (stereo unspecified) | inconclusive: -23.1
61 | N#Cc1ccc(-c2ccc(C3[C@H]4CNC[C@@H]3N4S(=O)(=O)c3ccc(-c4ccccc4)cc3)cc2)cc1 (stereo partly specified) | inactive: -1.89
55 | CCN(c1ccccc1)S(=O)(=O)c1cccc(C(=O)NCC(c2cccs2)N(C)C)c1 (stereo unspecified) | inconclusive: 17.3

Going on with the list:

Row | Compound | activity change, negative = inhibition
64 | CS(=O)(=O)c1ccc(Cl)c(NC(=O)COC(=O)c2c(Cl)cccc2Cl)c1 | inactive: 0.135
65 | COc1ccc(NC(=O)c2sccc2-n2cccc2)cc1 | inconclusive: -5.21
66 | O=C(Cn1cnc2ccccc21)c1ccc(Br)cc1 | inconclusive: -10.4
67 | CCOC(=O)C(C)Sc1nc(N2CCOCC2)c2c(c1C#N)CC(C)(C)OC2 (stereo unspecified) | inconclusive: -5.48
68 | COc1cc(OC)cc(C(=O)N[C@H](C(=O)OCC(=O)Nc2ccc(F)c(F)c2F)C(C)C)c1 | inactive: -7.03
69 | COc1ccc(NC(=O)Nc2cccc3c2O[C@H](CN(C)S(=O)(=O)c2ccc(Cl)cc2)[C@@H](C)CN([C@@H](C)CO)C3=O)cc1 | inactive: 3.16
70 | CC(=O)Nc1cccc(OCc2ccc([N+](=O)[O-])cc2)c1 | inactive: -1.13
71 | O=S(=O)(NOCc1ccc(Cl)cc1)c1ccc(Cl)cc1 | inactive: -0.389
72 | Cc1ccc(C)c(-c2[nH]ncc2CN2CCCC(CO)(Cc3ccccc3C)C2)c1 (stereo unspecified) | inconclusive: -11.3
73 | CCC(=O)Nc1nc2c(OC)ccc(OC)c2s1 | inactive: -11.1
74 | C[C@@H]1CCCCO[C@@H](CN(C)C(=O)CCCN(C)C)[C@@H](C)CN([C@H](C)CO)C(=O)c2cc(NC(=O)Nc3cccc4ccccc34)ccc2O1 | inconclusive: -1.23
75 | COc1ccccc1-c1ccc(SCc2ccc(F)cc2)nn1 | inconclusive: 3.62
76 | O=C(COC(=O)CCC(=O)c1ccc(F)cc1)Nc1cccc(S(=O)(=O)N2CCCC2)c1 | inconclusive: -12.7
77 | COc1cc(CCN(C(=O)c2cc3ccccc3[nH]2)C(c2ccccn2)c2nc3ccccc3[nH]2)cc(OC)c1 (stereo unspecified) | inconclusive: -10.6
78 | CC1(C(=O)NS(=O)(=O)c2ccc3c(c2)CCO3)CCN1C(=O)c1ccccc1CCc1ccccc1 (stereo unspecified) | inconclusive: -11
79 | C=CCn1c(C)cc(C(=O)CSc2nnc(C3CC3)n2C2CC2)c1C | inactive: -6.25
80 | O=C(Nc1ccc(C(=O)c2ccccc2)cc1)c1ccccc1 | inactive: -12.2
81 | CC1CCCN(c2ccc(C(=O)NCCc3ccccc3)cn2)C1 (stereo unspecified) | inconclusive: -19.7
